This is an account of results in publication PMC3751493.

By UniProt entry, the sequences of proteins in these tests, tags left out. Residues count along the entry.
UniProt Q9DC69, residues 36-377: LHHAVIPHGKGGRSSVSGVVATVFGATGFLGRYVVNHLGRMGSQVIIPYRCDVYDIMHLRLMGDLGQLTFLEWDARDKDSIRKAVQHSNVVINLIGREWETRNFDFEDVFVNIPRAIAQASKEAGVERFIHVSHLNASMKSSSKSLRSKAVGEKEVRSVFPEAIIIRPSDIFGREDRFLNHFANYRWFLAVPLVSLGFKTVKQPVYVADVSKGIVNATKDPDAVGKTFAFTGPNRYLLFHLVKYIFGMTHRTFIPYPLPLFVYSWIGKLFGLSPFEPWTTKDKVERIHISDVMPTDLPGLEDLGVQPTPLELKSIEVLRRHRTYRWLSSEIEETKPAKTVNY
UniProt Q3UIU2: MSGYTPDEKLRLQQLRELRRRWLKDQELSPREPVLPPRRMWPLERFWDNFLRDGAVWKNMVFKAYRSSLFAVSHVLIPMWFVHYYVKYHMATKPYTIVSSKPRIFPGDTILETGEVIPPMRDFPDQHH
UniProt P03911: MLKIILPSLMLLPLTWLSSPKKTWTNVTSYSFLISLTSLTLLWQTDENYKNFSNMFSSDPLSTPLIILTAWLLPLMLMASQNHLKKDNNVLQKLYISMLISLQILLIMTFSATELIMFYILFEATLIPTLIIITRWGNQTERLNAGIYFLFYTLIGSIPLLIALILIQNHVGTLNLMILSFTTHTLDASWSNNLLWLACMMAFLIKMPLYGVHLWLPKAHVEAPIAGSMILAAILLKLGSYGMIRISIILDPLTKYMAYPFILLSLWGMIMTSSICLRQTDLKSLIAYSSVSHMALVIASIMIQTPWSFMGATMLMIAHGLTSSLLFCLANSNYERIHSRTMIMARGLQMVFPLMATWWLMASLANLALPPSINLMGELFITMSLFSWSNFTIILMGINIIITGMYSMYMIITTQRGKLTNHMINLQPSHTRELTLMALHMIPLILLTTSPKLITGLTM
UniProt Q9CQZ5: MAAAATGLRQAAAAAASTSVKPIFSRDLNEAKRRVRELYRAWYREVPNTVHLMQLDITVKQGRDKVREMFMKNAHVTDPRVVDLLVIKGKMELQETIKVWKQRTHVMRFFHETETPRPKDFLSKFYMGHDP
UniProt Q9DCT2, residues 36-263: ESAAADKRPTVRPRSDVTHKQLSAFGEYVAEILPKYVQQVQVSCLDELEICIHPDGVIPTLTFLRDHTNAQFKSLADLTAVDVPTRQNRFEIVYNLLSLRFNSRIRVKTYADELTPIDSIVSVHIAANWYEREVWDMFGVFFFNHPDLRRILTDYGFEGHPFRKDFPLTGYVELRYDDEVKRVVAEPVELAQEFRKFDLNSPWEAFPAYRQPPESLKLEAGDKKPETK
UniProt Q9D6J5, residues 29-186: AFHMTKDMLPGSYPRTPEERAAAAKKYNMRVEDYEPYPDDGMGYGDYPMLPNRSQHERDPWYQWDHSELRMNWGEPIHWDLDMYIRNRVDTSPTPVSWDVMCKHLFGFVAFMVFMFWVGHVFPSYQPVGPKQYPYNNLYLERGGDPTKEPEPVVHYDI
UniProt Q9DC70, residues 36-224: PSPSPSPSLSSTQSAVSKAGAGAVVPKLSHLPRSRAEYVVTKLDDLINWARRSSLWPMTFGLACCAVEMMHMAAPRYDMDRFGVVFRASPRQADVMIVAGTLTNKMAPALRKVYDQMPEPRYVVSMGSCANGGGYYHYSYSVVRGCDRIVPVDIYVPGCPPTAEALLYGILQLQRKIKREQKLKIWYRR

The target in assay [1] is complex I subunit NDUFA9 (mouse (endogenous in liver mitochondria)) (UniProt Q9DC69). As to the kind of experiment: native gel or EMSA; one-dimensional 5% to 15% BN-PAGE of mouse liver mitochondrial complexes (n-dodecyl β-D-maltoside) after 10 μM PGZ in vitro; western blot with antibodies against complex I subunits; subunits found in the same band. For orientation: A gel shift assay detects complexes by their altered migration in electrophoresis.

The target is the same in assay [2]. Nature of the assay: native gel or EMSA; two-dimensional BN/SDS-PAGE of mouse liver mitochondria (30 μg) exposed to 10 μM PGZ for 30 minutes; western blot with antibodies against complex I subunits; subunits found in the same subcomplex.
Assay [3] concerns the target T1, complex I subunit MTND6 (mouse (endogenous in liver mitochondria)) (UniProt P03925).
T1 sequence: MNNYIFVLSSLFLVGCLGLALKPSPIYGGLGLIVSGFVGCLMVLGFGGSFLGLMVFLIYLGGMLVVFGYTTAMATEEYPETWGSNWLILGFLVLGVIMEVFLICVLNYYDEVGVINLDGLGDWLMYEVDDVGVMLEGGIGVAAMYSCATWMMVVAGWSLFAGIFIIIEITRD
Nature of the assay: native gel or EMSA; one-dimensional 5% to 15% BN-PAGE of mouse liver mitochondrial complexes (n-dodecyl β-D-maltoside) after 10 μM PGZ in vitro; western blot with antibodies against complex I subunits; subunits found in the same band.

For assay [4], the target named is complex I subunit NDUFB6 (mouse (endogenous in liver mitochondria)) (UniProt Q3UIU2). The description is as above.
Assay [5] has as its target T1, complex I subunit MTND6 (mouse (endogenous in liver mitochondria)). As to the kind of experiment: native gel or EMSA; two-dimensional BN/SDS-PAGE of mouse liver mitochondria (30 μg) exposed to 10 μM PGZ for 30 minutes; western blot with antibodies against complex I subunits; subunits found in the same subcomplex.
The target in assay [6] is complex I subunit NDUFB6 (mouse (endogenous in liver mitochondria)) (UniProt Q3UIU2). Described as above.
In assay [7] the target is complex I subunit MTND4 (mouse (endogenous in liver mitochondria)) (UniProt P03911). Nature of the assay: native gel or EMSA; one-dimensional 5% to 15% BN-PAGE of mouse liver mitochondrial complexes (n-dodecyl β-D-maltoside) after 10 μM PGZ in vitro; western blot with antibodies against complex I subunits; subunits found in the same band.
Assay [8] has the same target. As to the kind of experiment: native gel or EMSA; two-dimensional BN/SDS-PAGE of mouse liver mitochondria (30 μg) exposed to 10 μM PGZ for 30 minutes; western blot with antibodies against complex I subunits; subunits found in the same subcomplex.

Results are given in words; binding and its absence hold for the method and conditions named. Some results given as binding are weak or reduced against the parent protein; the word gives no strength.

In the case of “complex I subunit NDUFA6 (from UniProt Q9CQZ5 1-131)”, the binding entry in assay [1] and in assay [2] was “binds” in each case.

Regarding “complex I subunit NDUFS3 (from UniProt Q9DCT2 36-263)”, the binding entry in assay [1] and in assay [2] was “binds” in each case.

Take “complex I subunit NDUFB8 (from UniProt Q9D6J5 29-186)”: the binding result in assay [3], in assay [4], in assay [1], in assay [5], in assay [6] and in assay [2] was “binds” throughout.

Turning to “complex I subunit MTND4 (from UniProt P03911 1-459)”, the binding entry in assay [2] is “binds”.

With “complex I subunit NDUFB6 (from UniProt Q3UIU2 1-128)”, the binding result in assay [3], in assay [1], in assay [5] and in assay [2] was “binds” throughout.

For the molecule “complex I subunit NDUFS7 (from UniProt Q9DC70 36-224)”, the binding entry in assay [1] and in assay [2] was “binds” each time.

B1: complex I subunit NDUFC2 (protein, UniProt Q9CQ54 1-120)
chain: MMNGRPGHEPLKFLPDEARSLPPPKLNDPRLVYMGLLGYCTGLMDNMLRMRPVMRAGLHRQLLFVTSFVFAGYFYLKRQNYLYAVKDHDMFGYIKLHPEDFPEKEKKTYAEILEPFHPVR
As to B1, the binding entry in assay [7], in assay [8] and in assay [2] was “binds” throughout.

B2: complex I subunit MTND6 (protein, UniProt P03925 1-172)
chain: MNNYIFVLSSLFLVGCLGLALKPSPIYGGLGLIVSGFVGCLMVLGFGGSFLGLMVFLIYLGGMLVVFGYTTAMATEEYPETWGSNWLILGFLVLGVIMEVFLICVLNYYDEVGVINLDGLGDWLMYEVDDVGVMLEGGIGVAAMYSCATWMMVVAGWSLFAGIFIIIEITRD
Take B2: the binding result in assay [1] and in assay [2] was “binds” in each case.
